Results: patent US20130115182A1, “TOPICAL USE OF STEVIOL OR DERIVATIVES IN HAIR CARE” (DSM NUTRITIONAL PRODUCTS LTD., priority 2010, published 2013)
At least one structure is not confirmed: it was looked up by name or label, or the drawing left a doubt.

Tested on: normal human scalp skin hair follicles
Experiment: Hair follicle melanogenesis (in vitro graying of cultured anagen VI scalp hair follicles)
Format: cell-based
Conditions: 1 microM; seven day culture
Text: For optimal quality of hair follicles with an intact pigmentary-unit, normal human scalp skin hair follicles in the anagen VI stage of the hair cycle were isolated from scalp skin biopsies obtained from elective plastic surgery after obtaining informed consent from patients following the protocol published by Philpott and colleagues with slight modifications (Philpott et al. 1990, Philpott 1999). Briefly, after separation of epidermis and dermis from subcutaneous fat the dermis just above the dermis/subcutis border under a binocular dissecting microscope, the proximal two thirds of anagen hair follicles located in the subcutaneous fat were isolated using watchmakers forceps and subsequently collected in Petri dishes containing complete hair follicle culture medium (Williams E, Biochrom KG seromed, Berlin, Germany); 1% Penicillin-Streptomycin; 1% L-Glutamine 200 mM; 0.02% hydrocortisone; 0.1% Insulin. Three hair follicles per well were then randomly distributed and cultured in 24 well plates (Costar, N.Y., USA) containing […] of complete hair follicle culture medium per well. […] Every second day, each well was photo-documented, the pigmentation degree of each hair follicle determined, medium replaced and fresh supplements added. […] Remaining pigmentation is scored (+++). […]

With `CCCCCCCCCCCCC/C=C/[C@@H](O)[C@@H](N)COP(=O)([O-])OCC[N+](C)(C)C` [Sphingosylphosphorylcholine, reference compound] the Dystrophy was “−”.
